# According to US20120022228A1 (CENTRE NATIONAL DE LA RECHERCHE SCIENTIFIQUE, priority 2010, published 2012):
# Tests used:
# [1] = general procedure: Fmoc solid-phase peptide synthesis; Fmoc-Thr(tBu)-Wang resin; details: whole synthesis, scale 3026 g resin (0.7 mmol/g)
# [2] = general procedure: Fmoc solid-phase peptide synthesis; Fmoc-Thr(tBu)-Wang resin (0.7 mmol/g); details: for step yield / final purity (method not given): purification step; for step yield: recovery
# [3] = whole synthesis, scale of the general procedure 3026 g resin
substance,measurement,setting,value
H-Asp-Glu-Asn-Pro-Val-Val-His-Phe-Phe-Lys-Asn-Ile-Val-Thr-Pro-Arg-Thr-OH (DENPVVHFFKNIVTPRT; printed: Asp-Glu-Asn-Pro-Val-Val-His-Phe-Phe-Lys-Asn-Ile-Val-Thr-Pro-Arg-Thr-),crude mass,[1],4.171 kg
same,step yield,[2]; run 1,recovery 22%
same,step yield,[2]; run 2,recovery 35%
same,step yield,[2]; run 3,recovery 36%
same,step yield,[2]; run 4,recovery 33%
same,step yield,[2]; run 5,recovery 48%
same,step yield,[2]; run 6,recovery 60%
same,step yield,[2]; run 7,recovery 69%
same,final purity (method not given),[2]; run 1,89%
same,final purity (method not given),[2]; run 2,91%
same,final purity (method not given),[2]; run 3,94%
same,final purity (method not given),[2]; run 4,97%
same,final purity (method not given),[2]; run 5,98%
same,final purity (method not given),[2]; run 6,98%
same,final purity (method not given),[2]; run 7,97%
same,crude purity (method not given),[2]; [3],86%
same,crude yield,[2]; [3],68%
